Data reported in article doi:10.1101/2023.03.22.533843.

The chains behind the UniProt entries cited, without tags or fusion partners. Where a name states a change or a piece, a line headed by the entry shows the natural chain unless it says otherwise.
UniProt Q9NWS0, whole entry, stated change not applied: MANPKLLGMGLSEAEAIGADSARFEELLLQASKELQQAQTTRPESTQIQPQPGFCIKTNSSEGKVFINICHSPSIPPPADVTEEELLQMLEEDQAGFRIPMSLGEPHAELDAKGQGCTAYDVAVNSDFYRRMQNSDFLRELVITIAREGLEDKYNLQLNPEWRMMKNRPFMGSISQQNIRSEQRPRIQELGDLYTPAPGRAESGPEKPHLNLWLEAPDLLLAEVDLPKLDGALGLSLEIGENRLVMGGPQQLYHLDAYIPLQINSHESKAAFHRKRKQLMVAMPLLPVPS

Biological target: PIH1D1 (endogenous prey) (human (endogenous in HEK293)) (UniProt Q9NWS0)
Experiment: affinity purification with mass spectrometry

HSP90AA1 (from UniProt P07900 1-732)
binding: binds

No constants are given. Whether binding was seen depends on the method and setting. Binding seen in cells or lysates may run through a third protein. A yes stands for co-enrichment or nearness to the bait. Other partners may have been found.
